For one assay, the target named is T1, CAPZA^Acp1-AA (S. pombe) (UniProt Q10434).
T1 sequence: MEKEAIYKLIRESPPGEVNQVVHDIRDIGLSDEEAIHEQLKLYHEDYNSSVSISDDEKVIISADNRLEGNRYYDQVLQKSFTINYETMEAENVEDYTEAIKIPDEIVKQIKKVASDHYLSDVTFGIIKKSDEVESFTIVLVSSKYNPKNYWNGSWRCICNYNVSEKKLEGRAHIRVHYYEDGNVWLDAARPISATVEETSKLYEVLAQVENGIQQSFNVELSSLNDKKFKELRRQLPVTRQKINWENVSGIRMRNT
In words: co-IP; anti-HA immunoprecipitation of Acp1–HA under non-denaturing conditions from S. pombe lysate, 1 hour at 4°C; anti-GFP blot for Acp2–GFP; cells treated with DMSO or Torin1 (25 µM); wild-type, TORC1^R and TORC2^R strains.

Protein sequences, listed by entry. Tags and fused reporters are not part of them.
UniProt Q9HGP5: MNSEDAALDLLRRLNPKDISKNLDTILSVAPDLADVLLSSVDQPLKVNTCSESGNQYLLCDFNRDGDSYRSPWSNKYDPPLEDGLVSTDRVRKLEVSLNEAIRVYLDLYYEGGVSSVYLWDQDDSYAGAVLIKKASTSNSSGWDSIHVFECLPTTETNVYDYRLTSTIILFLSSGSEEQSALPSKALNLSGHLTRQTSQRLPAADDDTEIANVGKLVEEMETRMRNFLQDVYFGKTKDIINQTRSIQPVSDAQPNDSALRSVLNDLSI

Another assay has as its target T2, CAPZA^Acp1–HA (S. pombe) (UniProt Q10434).
T2 sequence: T1 sequence with A172S, A189S
The description is as above.

Where a chain is given by its changes, count along the chain named. No constants are given. Whether binding was seen depends on the method and setting. Binding seen in cells or lysates may run through a third protein. Some binding calls cover weakened binding; strength is not graded here. For some assays here: Sequences can lack the tags named with a protein.

As for “CAPZB^Acp2–GFP (from UniProt Q9HGP5 1-268)”, the binding result with CAPZA^Acp1-AA (S. pombe) and with CAPZA^Acp1–HA (S. pombe) was “binds” in each case.

The record behind these values is publication PMC4958305.
